PubChem BioAssay AID504793 | Drosophila RNAi Screening Center | 2011

- Test: 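Knock-downs allowing continued mitosis even though DNA is damaged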 (primary screen)
- Cell system: Drosophila S2R+ cells
- Reagents: long dsRNA against Drosophila genes, about 0.25 µg dsRNA per well
- Timing: 4 days of dsRNA, then 4 hours of drug before read-out
- Conditions: doxorubicin 0.5 µM for 4 hours to cause double-strand breaks, in cells also given a low, harmless dose of dsRNA against nbs to sensitise the assay
- Measured: 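Mitotic index as the number of phospho-histone H3-positive cells in each well following doxorubicin, given as raw counts without normalisation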
- Direction: mitotic cells: higher = more cells in mitosis, weaker G2 arrest
- Call rule: 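a call needs confirmation in secondary tests, with other dsRNAs and a check of mitotic timing without damage, not just a high primary count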
- Meaning of the calls: active = confirmed in follow-up tests; inactive = not confirmed
The screen tested about 23,000 reagents; shown is a random part of those that have a named target and a result. Over the whole deposit, 62 (0.27%) were called active. 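Calls come from follow-up tests whose scores are not deposited, so confirmed genes may have low counts here; counts are not normalised per plate.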 Raw values are not corrected between plates. The numbers tell different reagents against one gene apart. Names joined by + are all predicted targets of the reagent. Reagent sequences are not shown.

Gene | reagent | mitotic cells, replicate 1 | outcome
Mcr (GeneID 44071) | 1 | 12 | inactive
eloF (GeneID 41211) | 1 | 5 | inactive
eloF (GeneID 41211) | 2 | 9 | inactive
CG33225 (GeneID 2768860) | 1 | 24 | inactive
CG14763 (GeneID 35757) | 1 | 9 | inactive
CG14763 (GeneID 35757) | 2 | 19 | inactive
CG34357 (GeneID 5740349) | 1 | 6 | inactive
CG34357 (GeneID 5740349) | 2 | 3 | inactive
CG34357 (GeneID 5740349) | 3 | 7 | inactive
CG34357 (GeneID 5740349) | 4 | 4 | inactive
CG34357 (GeneID 5740349) | 5 | 13 | inactive
PIP4K (GeneID 3885565) | 1 | 10 | inactive
CG8414 (GeneID 36774) | 1 | 7 | inactive
CG2321 (GeneID 43471) | 1 | 4 | inactive
JhI-21 (GeneID 34624) | 1 | 2 | inactive
JhI-21 (GeneID 34624) | 2 | 6 | inactive
E(spl)mgamma-HLH (GeneID 43151) | 1 | 4 | inactive
E(spl)mgamma-HLH (GeneID 43151) | 2 | 2 | inactive
dpr12 (GeneID 50320) | 1 | 4 | inactive
dpr12 (GeneID 50320) | 2 | 4 | inactive
PolZ2 (GeneID 40677) | 1 | 7 | inactive
CG11892 (GeneID 43053) | 1 | 6 | inactive
xmas (GeneID 44271) | 1 | 15 | inactive
xmas (GeneID 44271) | 2 | 20 | inactive
CG31436 (GeneID 318734) | 1 | 9 | inactive
CG31436 (GeneID 318734) | 2 | 10 | inactive
scaf6 (GeneID 3346235) | 1 | 10 | inactive
scaf6 (GeneID 3346235) | 2 | 2 | inactive
CG12105 (GeneID 38190) | 1 | 11 | inactive
CG12105 (GeneID 38190) | 2 | 7 | inactive
Cog3 (GeneID 33562) | 1 | 5 | inactive
CG13228 (GeneID 36178) | 1 | 8 | inactive
CG13228 (GeneID 36178) | 2 | 6 | inactive
vis + achi | 1 | 5 | inactive
CG42819 + CG42820 | 1 | 5 | inactive
CG12934 (GeneID 36124) | 1 | 6 | inactive
CG12934 (GeneID 36124) | 2 | 4 | inactive
CG42372 + CG30100 | 1 | 6 | inactive
CG32110 (GeneID 317858) | 1 | 9 | inactive
UQCR-14 + CG32576 | 1 | 3 | inactive
Nup160 + RfC38 | 1 | 6 | inactive
CR14798 (GeneID 31126) | 1 | 14 | inactive
CG4325 (GeneID 31167) | 1 | 2 | inactive
CG4325 (GeneID 31167) | 2 | 7 | inactive
CG14818 (GeneID 31147) | 1 | 4 | inactive
CG14818 (GeneID 31147) | 2 | 3 | inactive
CG32050 (retired record) (GeneID 39154) | 1 | 4 | inactive
CG32050 (retired record) (GeneID 39154) | 2 | 9 | inactive
Nop56 (GeneID 42633) | 1 | 14 | inactive

Reprinted from above, 12 entries:
Gene | reagent | mitotic cells, replicate 1 | outcome
scaf6 (GeneID 3346235) | 2 | 2 | inactive
CG12105 (GeneID 38190) | 1 | 11 | inactive
CG12105 (GeneID 38190) | 2 | 7 | inactive
Cog3 (GeneID 33562) | 1 | 5 | inactive
CG13228 (GeneID 36178) | 1 | 8 | inactive
CG13228 (GeneID 36178) | 2 | 6 | inactive
vis + achi | 1 | 5 | inactive
CG42819 + CG42820 | 1 | 5 | inactive
CG12934 (GeneID 36124) | 1 | 6 | inactive
CG12934 (GeneID 36124) | 2 | 4 | inactive
CG42372 + CG30100 | 1 | 6 | inactive
CG32110 (GeneID 317858) | 1 | 9 | inactive

More reagents follow:
Gene | reagent | mitotic cells, replicate 1 | outcome
CG18368 (GeneID 36519) | 1 | 8 | inactive
TMEM216 (GeneID 41035) | 1 | 2 | inactive
TMEM216 (GeneID 41035) | 2 | 5 | inactive
Spn77Ba (GeneID 40234) | 1 | 8 | inactive
ich (GeneID 41069) | 1 | 2 | inactive
ich (GeneID 41069) | 2 | 7 | inactive
Gld2 (GeneID 42602) | 1 | 16 | inactive
Gld2 (GeneID 42602) | 2 | 6 | inactive
Nse1 (GeneID 33938) | 1 | 9 | inactive
CG32148 (GeneID 251924) | 1 | 4 | inactive
CG32148 (GeneID 251924) | 2 | 9 | inactive
Lrr47 (GeneID 34449) | 1 | 6 | inactive
CG32808 (GeneID 318221) | 1 | 6 | inactive
CG32808 (GeneID 318221) | 2 | 3 | inactive
tld (GeneID 42945) | 1 | 8 | inactive
rumi (GeneID 326122) | 1 | 12 | inactive
rumi (GeneID 326122) | 2 | 3 | inactive
glob1 (GeneID 41930) | 1 | 7 | inactive
wake (GeneID 42676) | 1 | 7 | inactive
wake (GeneID 42676) | 2 | 12 | inactive
glu (GeneID 35001) | 1 | 13 | inactive
glu (GeneID 35001) | 2 | 8 | inactive
CG31900 (retired record) (GeneID 319013) | 1 | 6 | inactive
CG15097 (GeneID 37172) | 1 | 2 | inactive
CG15097 (GeneID 37172) | 2 | 7 | inactive
CG32944 (GeneID 40560) | 1 | 11 | inactive
CG32944 (GeneID 40560) | 2 | 4 | inactive
GstE6 (GeneID 37111) | 1 | 9 | inactive
CG12985 (GeneID 32774) | 1 | 6 | inactive
CG12985 (GeneID 32774) | 2 | 5 | inactive
wac (GeneID 38044) | 1 | 93 | inactive
wac (GeneID 38044) | 2 | 29 | inactive
Yp3 (GeneID 32339) | 1 | 9 | inactive
Yp3 (GeneID 32339) | 2 | 10 | inactive
CG15042 (GeneID 32844) | 1 | 11 | inactive
Ada1-1 + Ada1-2 | 1 | 4 | inactive
Ada1-1 + Ada1-2 | 2 | 7 | inactive
Ada1-1 + Ada1-2 | 3 | 8 | inactive
CG17652 (GeneID 33353) | 1 | 4 | inactive
Syp (GeneID 42460) | 1 | 12 | inactive
Syp (GeneID 42460) | 2 | 5 | inactive
Syp (GeneID 42460) | 3 | 6 | inactive
Kdm4B (GeneID 318918) | 1 | 10 | inactive
Kdm4B (GeneID 318918) | 2 | 3 | inactive
CG11722 (GeneID 41227) | 1 | 12 | inactive
Piezo (GeneID 34112) | 1 | 3 | inactive
Ctps (GeneID 39645) | 1 | 2 | inactive
Ctps (GeneID 39645) | 2 | 7 | inactive
Ctps (GeneID 39645) | 3 | 4 | inactive
CG9759 (GeneID 41661) | 1 | 4 | inactive
CG9759 (GeneID 41661) | 2 | 10 | inactive
CG31835 + CG42585 | 1 | 3 | inactive
Mal-A4 (GeneID 35827) | 1 | 7 | inactive
Mal-A4 (GeneID 35827) | 2 | 3 | inactive
CG43894 (GeneID 39464) | 1 | 2 | inactive
CG43894 (GeneID 39464) | 2 | 8 | inactive
CG4615 (GeneID 31656) | 1 | 10 | inactive
CG4615 (GeneID 31656) | 2 | 4 | inactive
CG4615 (GeneID 31656) | 3 | 5 | inactive
CG14668 (GeneID 40646) | 1 | 4 | inactive
Tom (GeneID 39619) | 1 | 9 | inactive
Tom (GeneID 39619) | 2 | 6 | inactive
